PubChem BioAssay AID743121 | NCATS, 2013
Here is an unselected part of about 26,000 reagents tested. Over the whole deposit, 167 (0.63%) were called active. 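Calls are per gene from RSA p-values that are not deposited; an individual active-marked siRNA can sensitise only weakly.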 Reagents against one gene are numbered here. Further read-outs or replicates are left out here. No sequences are given here.

- Test: 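Genes whose silencing strengthens cell killing by camptothecin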 (primary screen)
- System: MDA-MB-231 cells, a human breast cancer line
- Knock-down reagent: single siRNA against human genes, 20 nM siRNA (0.8 pmol per well)
- Duration: 120 h (drug added 48 h after transfection, read 72 h later)
- Treatment: camptothecin 20 nM (about EC30) for 72 h; vehicle 0.1% DMSO in parallel plates
- Read-out: 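CellTiter-Glo ATP signal, scaled to control siRNA as percent viability; sensitisation given as log2 of untreated divided by camptothecin-treated viability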
- Reading the numbers: log2 vehicle/camptothecin viability: higher = stronger sensitisation to camptothecin; viability with camptothecin: higher = more viable cells
- Rule for the call: 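Each gene scored by redundant siRNA activity (RSA) over its individual siRNA ratios; a gene is called active at p < 0.001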

FNTB #1 scored log2 vehicle/camptothecin viability 0.38; viability with camptothecin (% of control) = 55; inactive.
With knock-down of FNTB #2, the screen gave log2 vehicle/camptothecin viability -0.103; viability with camptothecin (% of control) = 106; inactive.
FNTB #3 scored log2 vehicle/camptothecin viability -0.107; viability with camptothecin (% of control) = 69.7; inactive.
After knock-down of FNTB #4 the results were log2 vehicle/camptothecin viability -0.316; viability with camptothecin (% of control) = 55.6; inactive.
MARK3 #1 gave log2 vehicle/camptothecin viability -0.0785; viability with camptothecin (% of control) = 80.1; inactive.
MARK3 #2 scored log2 vehicle/camptothecin viability -0.179; viability with camptothecin (% of control) = 50.6; inactive.
Against MARK3 #3, the values are log2 vehicle/camptothecin viability -0.138; viability with camptothecin (% of control) = 99.6; inactive.
MARK3 #4 scored log2 vehicle/camptothecin viability 0.917; viability with camptothecin (% of control) = 27.4; inactive.
For NHERF2 #1 the deposit lists log2 vehicle/camptothecin viability -0.246; viability with camptothecin (% of control) = 84.5; inactive.
NHERF2 #2 scored log2 vehicle/camptothecin viability 0.498; viability with camptothecin (% of control) = 44.2; inactive.
NHERF2 #3 showed log2 vehicle/camptothecin viability 0.0442; viability with camptothecin (% of control) = 105; inactive.
Silencing of NHERF2 #4 gave: log2 vehicle/camptothecin viability -0.923; viability with camptothecin (% of control) = 24.5; inactive.
Against LINGO4 #1, the entry reads log2 vehicle/camptothecin viability 0.128; viability with camptothecin (% of control) = 47.4; inactive.
With knock-down of LINGO4 #2, the screen gave log2 vehicle/camptothecin viability -0.0429; viability with camptothecin (% of control) = 95.1; inactive.
For LINGO4 #3 the deposit lists log2 vehicle/camptothecin viability 0.154; viability with camptothecin (% of control) = 63.4; inactive.
Silencing of LINGO4 #4 gave: log2 vehicle/camptothecin viability -0.0102; viability with camptothecin (% of control) = 104; inactive.

A portion from the list above, as a working copy:
MARK3 #4: log2 vehicle/camptothecin viability = 0.917; viability with camptothecin (% of control) = 27.4; call = inactive
NHERF2 #1: log2 vehicle/camptothecin viability = -0.246; viability with camptothecin (% of control) = 84.5; call = inactive
